Measured values from publication doi:10.1101/2023.05.11.540316.
Results are given in words; binding and its absence hold for the method and conditions named. For some of these results: Binding seen in cells or lysates may run through a third protein. Some entries that bind do so weakly or less than the wild type. For some of these results: Where a sequence is shown, tags or fusion partners need not be part of it.

Amino acid sequences for entries named in this document (tags omitted).
UniProt P61765: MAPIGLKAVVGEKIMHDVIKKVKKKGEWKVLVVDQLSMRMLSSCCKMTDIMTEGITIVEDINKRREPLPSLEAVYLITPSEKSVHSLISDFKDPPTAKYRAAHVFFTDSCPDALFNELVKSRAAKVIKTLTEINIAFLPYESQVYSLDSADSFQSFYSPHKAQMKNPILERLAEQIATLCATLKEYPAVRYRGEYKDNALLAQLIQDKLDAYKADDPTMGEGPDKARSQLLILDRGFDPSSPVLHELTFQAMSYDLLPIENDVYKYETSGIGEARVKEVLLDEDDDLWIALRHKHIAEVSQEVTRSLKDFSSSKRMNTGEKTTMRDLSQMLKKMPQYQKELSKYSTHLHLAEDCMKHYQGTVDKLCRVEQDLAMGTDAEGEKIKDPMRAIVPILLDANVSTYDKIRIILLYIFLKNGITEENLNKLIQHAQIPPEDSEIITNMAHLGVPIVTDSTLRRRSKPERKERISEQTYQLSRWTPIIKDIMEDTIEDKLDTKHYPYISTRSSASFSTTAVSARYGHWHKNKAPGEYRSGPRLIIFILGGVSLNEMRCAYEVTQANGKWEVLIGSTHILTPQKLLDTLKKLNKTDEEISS

Experiments:
[1] = target: GFP-tagged STXBP1^WT (ALPHAScreen) (UniProt P61765); assay: AlphaScreen or HTRF
STXBP1-emGFP = STXBP1-emGFP (UniProt P61765); assay: co-IP

B1: myc-tagged PNPLA1 (ALPHAScreen) (enzyme, UniProt Q8N8W4 1-532)
chain: MEEQVFKGDPDTPHSISFSGSGFLSFYQAGAVDALRDLAPRMLETAHRFAGTSAGAVIAALAICGIEMDEYLRVLNVGVAEVKKSFLGPLSPSCKMVQMMRQFLYRVLPEDSYKVTTGKLHVSLTRLTDGENVVVSEFTSKEELIEALYCSCFVPVYCGLIPPTYRGVRYIDGGFTGMQPCAFWTDAITISTFSGQQDICPRDCPAIFHDFRMFNCSFQFSLENIARMTHALFPPDLVILHDYYYRGYEDAVLYLRRLNAVYLNSSSKRVIFPRVEVYCQIELALGNECPERSQPSLRARQASLEGATQPHKEWVPKGDGRGSHGPPVSQPVQTLEFTCESPVSAPVSPLEQPPAQPLASSTPLSLSGMPPVSFPAVHKPPSSTPGSSLPTPPPGLSPLSPQQQVQPSGSPARSLHSQAPTSPRPSLGPSTVGAPQTLPRSSLSAFPAQPPVEELGQEQPQAVALLVSSKPKSAVPLVHVKETVSKPYVTESPAEDSNWVNKVFKKNKQKTSGTRKGFPRHSGSKKPSSKVQ
[1]
  binding: binds

B2: myc-tagged PAPLA1 (ALPHAScreen) (enzyme, UniProt Q8NEL9 1-900)
chain: MNYPGRGSPRSPEHNGRGGGGGAWELGSDARPAFGGGVCCFEHLPGGDPDDGDVPLALLRGEPGLHLAPGTDDHNHHLALDPCLSDENYDFSSAESGSSLRYYSEGESGGGGSSLSLHPPQQPPLVPTNSGGGGATGGSPGERKRTRLGGPAARHRYEVVTELGPEEVRWFYKEDKKTWKPFIGYDSLRIELAFRTLLQTTGARPQGGDRDGDHVCSPTGPASSSGEDDDEDRACGFCQSTTGHEPEMVELVNIEPVCVRGGLYEVDVTQGECYPVYWNQADKIPVMRGQWFIDGTWQPLEEEESNLIEQEHLNCFRGQQMQENFDIEVSKSIDGKDAVHSFKLSRNHVDWHSVDEVYLYSDATTSKIARTVTQKLGFSKASSSGTRLHRGYVEEATLEDKPSQTTHIVFVVHGIGQKMDQGRIIKNTAMMREAARKIEERHFSNHATHVEFLPVEWRSKLTLDGDTVDSITPDKVRGLRDMLNSSAMDIMYYTSPLYRDELVKGLQQELNRLYSLFCSRNPDFEEKGGKVSIVSHSLGCVITYDIMTGWNPVRLYEQLLQKEEELPDERWMSYEERHLLDELYITKRRLKEIEERLHGLKASSMTQTPALKFKVENFFCMGSPLAVFLALRGIRPGNTGSQDHILPREICNRLLNIFHPTDPVAYRLEPLILKHYSNISPVQIHWYNTSNPLPYEHMKPSFLNPAKEPTSVSENEGISTIPSPVTSPVLSRRHYGESITNIGKASILGAASIGKGLGGMLFSRFGRSSTTQSSETSKDSMEDEKKPVASPSATTVGTQTLPHSSSGFLDSAYFRLQESFFNLPQLLFPENVMQNKDNALVELDHRIDFELREGLVESRYWSAVTSHTAYWSSLDVALFLLTFMYKHEHDDDAKPNLDPI
[1]
  binding: binds

B3: DDHD2, endogenous in PC12 cells (enzyme, UniProt D3ZJ91 1-699)
chain: MSSGESYQEQLSQSDPSPSPNSSSSFELLDMDVGSSYEPVSPHWFYCKVIDSKELWIPFNSEDSQQLEEAHGSGKDCNERVVPTDGGRYDVHLGERMRYAVYWDELPSEVRRCTWFYKGDKDNKYVPYSESFSQVLEDTYMLAVTLDEWKKKLESPNREIIVLHNPKLMVHYQPITGSDEWGSTSTEQGRPRSVKRGVESIPVDIHCGEPLQIDHLVFVVHGIGPACDLRFRSIVQCVNDFRSVSLNLLQTHFKKAQENQQIGRVEFLPVNWHSPLHSTGVDIDLQRITLPSINRLRHFTNDTILDVFFYNSPTYCQTIVDTVASEMNRIYTLFLQRNPDFKGGVSIAGHSLGSLILFDILTNQKDSIGDIDSEKGSLSTAEDLGDVSTLEEELKKLQLSEFVTVFEKEKVDREALALCTDRDLQEMGIPLGPRKKILNHFSATKSSVGINRPTMSASEVNIPKEKGDYLDVGIGQVSVKYPRLNYKPEIFFAFGSPIGMFLTVRGLRRIDPNYKFPTCKGFFNIYHPFDPVAYRIEPMVVPGVEFEPMLIPHHKGRKRMHLELREGLTRMSMDLKNNLLGSLRMAWKSFTRAPYPALQASEMAEDTEAESEPSSEKPSDANTEEPPVEVKEEAPINVGMLNGGQRIDYVLQEKPIESFNEYLFALQSHLCYWESEDTVLLVLKEIYQTQGIFLDQPLQ
STXBP1-emGFP
  binding: binds

B4: myc-tagged DDHD2 (ALPHAScreen) (enzyme, UniProt O94830 1-711)
chain: MSSVQSQQEQLSQSDPSPSPNSCSSFELIDMDAGSLYEPVSPHWFYCKIIDSKETWIPFNSEDSQQLEEAYSSGKGCNGRVVPTDGGRYDVHLGERMRYAVYWDELASEVRRCTWFYKGDKDNKYVPYSESFSQVLEETYMLAVTLDEWKKKLESPNREIIILHNPKLMVHYQPVAGSDDWGSTPTEQGRPRTVKRGVENISVDIHCGEPLQIDHLVFVVHGIGPACDLRFRSIVQCVNDFRSVSLNLLQTHFKKAQENQQIGRVEFLPVNWHSPLHSTGVDVDLQRITLPSINRLRHFTNDTILDVFFYNSPTYCQTIVDTVASEMNRIYTLFLQRNPDFKGGVSIAGHSLGSLILFDILTNQKDSLGDIDSEKDSLNIVMDQGDTPTLEEDLKKLQLSEFFDIFEKEKVDKEALALCTDRDLQEIGIPLGPRKKILNYFSTRKNSMGIKRPAPQPASGANIPKESEFCSSSNTRNGDYLDVGIGQVSVKYPRLIYKPEIFFAFGSPIGMFLTVRGLKRIDPNYRFPTCKGFFNIYHPFDPVAYRIEPMVVPGVEFEPMLIPHHKGRKRMHLELREGLTRMSMDLKNNLLGSLRMAWKSFTRAPYPALQASETPEETEAEPESTSEKPSDVNTEETSVAVKEEVLPINVGMLNGGQRIDYVLQEKPIESFNEYLFALQSHLCYWESEDTVLLVLKEIYQTQGIFLDQPLQ
[1]
  binding: binds
